Results taken from publication doi:10.1101/2023.10.04.560926.
Results are given in words; binding and its absence hold for the method and conditions named. Binding seen in cells or lysates may run through a third protein. Sequences can lack the tags named with a protein.

How the values were obtained:
[1] = biological target: IFNAR1-V5-TurboID (HEK293T) (human); assay: co-IP
[2] = biological target: IFNAR2-V5-TurboID (HEK293T) (human); assay: co-IP

B1: Flag-PJA2 (enzyme, UniProt O43164-1 1-708)
chain: MSQYTEKEPAAMDQESGKAVWPKPAGGYQTITGRRYGRRHAYVSFKPCMTRHERSLGRAGDDYEVLELDDVPKENSSGSSPLDQVDSSLPSEPIFEKSETEIPTCGSALNQTTESSQSFVAVHHSEEGRDTLGSSTNLHNHSEGEYIPGACSASSVQNGIALVHTDSYDPDGKHGEDNDHLQLSAEVVEGSRYQESLGNTVFELENREAEAYTGLSPPVPSFNCEVRDEFEELDSVPLVKSSAGDTEFVHQNSQEIQRSSQDEMVSTKQQNNTSQERQTEHSPEDAACGPGHICSEQNTNDREKNHGSSPEQVVRPKVRKLISSSQVDQETGFNRHEAKQRSVQRWREALEVEESGSDDLLIKCEEYDGEHDCMFLDPPYSRVITQRETENNQMTSESGATAGRQEVDNTFWNGCGDYYQLYDKDEDSSECSDGEWSASLPHRFSGTEKDQSSSDESWETLPGKDENEPELQSDSSGPEEENQELSLQEGEQTSLEEGEIPWLQYNEVNESSSDEGNEPANEFAQPAFMLDGNNNLEDDSSVSEDLDVDWSLFDGFADGLGVAEAISYVDPQFLTYMALEERLAQAMETALAHLESLAVDVEVANPPASKESIDGLPETLVLEDHTAIGQEQCCPICCSEYIKDDIATELPCHHFFHKPCVSIWLQKSGTCPVCRRHFPPAVIEASAAPSSEPDPDAPPSNDSIAEAP
- binding [1]: no binding
- binding [2]: no binding
